Test results published in US7824868B2, “Formation of superfibronectin by BBK32 and uses therefor” (priority 2007, dated 2010).
Some entries share one result that the patent states for a list of compounds.

Tested on: purified plasma fibronectin
Assay: Fibronectin aggregation assay (O.D.600)
Assay type: biochemical, human
Settings: 1 μM purified plasma fibronectin, absorbance at 600 nm
Protocol: BBK32, FnbpA peptide D3, Anastellin, and purified plasma fibronectin were centrifuged at 14,000 rpm for 15 minutes and then filtered through 0.22 μm PES syringe filters (Nalgene, Rochester, N.Y.). Following filtration, BBK32, FnbpA peptide D3, and Anastellin were titrated into 1 μM purified plasma fibronectin in TBS. After the addition of each aliquot, the fibronectin/protein mixture was carefully mixed five times with a 200 μl pipette and optical density at 600 nm was measured using a BioPhotometer (Eppendorf, New York, N.Y.) after 10 seconds.

Molecule	inducer concentration at which fibronectin aggregation is initiated
Anastellin: Recombinant form of the C-terminal two-thirds of fibronectin ^1F3 with C-terminal His-tag; known inducer of superfibronectin [reference compound]	≥ 20 µM
BBK32(21-205): Recombinant fibronectin-binding segment, residues 21-205, of Borrelia burgdorferi lipoprotein BBK32 (SEQ ID NO: 6) (protein, recombinant peptide from residues 21-205 of BBK32) DLFIRYEMKEESPGLFDKGNSILETSEESIKKPIKKPMNKKGKGKIARKKGKSKVSRKEPYIHSLKRDSANKSNFLQKNVILEEESLKTELLKEQSETRKEKIQKQQDEYKGMTQGSLNSLSGESGELEEPIESNEIDLTIDSDLRPKSSLQGIAGSNSISYTDEIEEEDYDQYYLDEYDEEDEEEIRL	≥ 20 µM
